This is one part of the list. Many values rest on one well or one pass, so single values are uncertain.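 Cells were imaged in 1,536-well plates, and nuclei stained with an antibody against cleaved PARP were counted against all DNA-stained nuclei to give the apoptosis fraction. Screening doses were chosen to leave most cells alive, and resting and induced cleaved-PARP levels differ strongly between cell lines.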
What follows are molecules tested on IPC-298 (assay: cleaved PARP positive nuclei fraction relative to DMSO control; melanoma cells; higher = more apoptosis). Conditions: library dose: low library concentration; 72 h.

SMILES	cleaved PARP positive nuclei fraction [%]
Cc1cn(-c2cc(NC(=O)c3ccc(C)c(Nc4nccc(-c5cccnc5)n4)c3)cc(C(F)(F)F)c2)cn1 [nilotinib] + CNC(=O)c1cc(Oc2ccc(NC(=O)Nc3ccc(Cl)c(C(F)(F)F)c3)cc2)ccn1 [sorafenib] (first compound 0.2 µM, partner dose 0.4 µM)	84.3
O=c1[nH]nc(Sc2ncc([N+](=O)[O-])s2)n1-c1ccc2c(c1)OCCO2 + Nc1nc(F)nc2c1ncn2[C@@H]1O[C@H](CO)[C@@H](O)[C@@H]1O [fludarabine] (first compound 0.2 µM, partner dose 0.2 µM)	90.3
Cc1cn(-c2cc(NC(=O)c3ccc(C)c(Nc4nccc(-c5cccnc5)n4)c3)cc(C(F)(F)F)c2)cn1 [nilotinib] + CCCS(=O)(=O)Nc1ccc(F)c(C(=O)c2c[nH]c3ncc(Cl)cc23)c1F [PLX4720] (first compound 0.2 µM, partner dose 0.08 µM)	179
O=C(Nc1cc(C(F)(F)F)cc(C(F)(F)F)c1)c1cc(Cl)ccc1O + CC(=O)O[C@@]12CO[C@@H]1C[C@H](O)[C@@]1(C)C(=O)[C@H](O)C3=C(C)[C@@H](OC(=O)[C@H](O)[C@@H](NC(=O)OC(C)(C)C)c4ccccc4)C[C@@](O)([C@@H](OC(=O)c4ccccc4)[C@H]21)C3(C)C [Docetaxel] (first compound 0.016 µM, partner dose 0.0001 µM)	106
O=C(/C=C/c1cccnc1)NCCCCC1CCN(C(=O)c2ccccc2)CC1 + Nc1nc(F)nc2c1ncn2[C@@H]1O[C@H](CO)[C@@H](O)[C@@H]1O [fludarabine] (first compound 0.01 µM, partner dose 0.2 µM)	193
N#CC[C@H](C1CCCC1)n1cc(-c2ncnc3[nH]ccc23)cn1 [ruxolitinib] + NC1(c2ccc(-c3nc4ccn5c(=O)[nH]nc5c4cc3-c3ccccc3)cc2)CCC1 [MK2206] (first compound 1 µM, partner dose 0.4 µM)	110
CCCCCCCCCCCCCCCCCCOP(=O)([O-])OC1CC[N+](C)(C)CC1 [Perifosine] + Cn1c(=O)n(-c2ccc(C(C)(C)C#N)cc2)c2c3cc(-c4cnc5ccccc5c4)ccc3ncc21 [NVP-BEZ235] (first compound 0.4 µM, partner dose 0.004 µM)	163
CC[C@]1(O)C[C@H]2CN(CCc3c([nH]c4ccccc34)[C@@](C(=O)OC)(c3cc4c(cc3OC)N(C=O)[C@H]3[C@@](O)(C(=O)OC)[C@H](OC(C)=O)[C@]5(CC)C=CCN6CC[C@]43[C@@H]65)C2)C1 [vincristine] + CC(=O)O[C@@]12CO[C@@H]1C[C@H](O)[C@@]1(C)C(=O)[C@H](O)C3=C(C)[C@@H](OC(=O)[C@H](O)[C@@H](NC(=O)OC(C)(C)C)c4ccccc4)C[C@@](O)([C@@H](OC(=O)c4ccccc4)[C@H]21)C3(C)C [Docetaxel] (first compound 0.0001 µM, partner dose 0.0001 µM)	406
CCCCCCCCCCCCCCCCCCOP(=O)([O-])OC1CC[N+](C)(C)CC1 [Perifosine] + CO[C@H]1C[C@@H]2CC[C@@H](C)[C@@](O)(O2)C(=O)C(=O)N2CCCC[C@H]2C(=O)O[C@H]([C@H](C)C[C@@H]2CC[C@@H](OCCO)[C@H](OC)C2)CC(=O)[C@H](C)/C=C(\C)[C@@H](O)[C@@H](OC)C(=O)[C@H](C)C[C@H](C)/C=C/C=C/C=C/1C [everolimus] (first compound 0.4 µM, partner dose 0.02 µM)	113
Cc1ccc(Nc2nccc(N(C)c3ccc4c(C)n(C)nc4c3)n2)cc1S(N)(=O)=O [Pazopanib] + CS(=O)(=O)CCNCc1ccc(-c2ccc3ncnc(Nc4ccc(OCc5cccc(F)c5)c(Cl)c4)c3c2)o1 [lapatinib] (first compound 0.4 µM, partner dose 0.8 µM)	137
N#CC[C@H](C1CCCC1)n1cc(-c2ncnc3[nH]ccc23)cn1 [ruxolitinib] + C[C@]1(c2nc3c(C(N)=O)cccc3[nH]2)CCCN1 [Veliparib] (first compound 1 µM, partner dose 1.4 µM)	44.6
CC[C@]1(O)C[C@H]2CN(CCc3c([nH]c4ccccc34)[C@@](C(=O)OC)(c3cc4c(cc3OC)N(C=O)[C@H]3[C@@](O)(C(=O)OC)[C@H](OC(C)=O)[C@]5(CC)C=CCN6CC[C@]43[C@@H]65)C2)C1 [vincristine] + Cn1cnc2c(F)c(Nc3ccc(Br)cc3Cl)c(C(=O)NOCCO)cc21 [selumetinib] (first compound 0.0001 µM, partner dose 0.015 µM)	158
CC[C@]1(O)C[C@H]2CN(CCc3c([nH]c4ccccc34)[C@@](C(=O)OC)(c3cc4c(cc3OC)N(C=O)[C@H]3[C@@](O)(C(=O)OC)[C@H](OC(C)=O)[C@]5(CC)C=CCN6CC[C@]43[C@@H]65)C2)C1 [vincristine] + Nc1cccc2c1CN(C1CCC(=O)NC1=O)C2=O [lenalidomide] (first compound 0.0001 µM, partner dose 1 µM)	180
N#CC[C@H](C1CCCC1)n1cc(-c2ncnc3[nH]ccc23)cn1 [ruxolitinib] + CCN(CC)CCNC(=O)c1c(C)[nH]c(/C=C2\C(=O)Nc3ccc(F)cc32)c1C [sunitinib] (first compound 1 µM, partner dose 0.4 µM)	108
COc1cc([C@@H]2c3cc4c(cc3[C@@H](O[C@@H]3O[C@@H]5CO[C@@H](C)O[C@H]5[C@H](O)[C@H]3O)[C@H]3COC(=O)[C@H]23)OCO4)cc(OC)c1O [etoposide] + O=C(/C=C/c1cccnc1)NCCCCC1CCN(C(=O)c2ccccc2)CC1 [FK866] (first compound 0.02 µM, partner dose 0.01 µM)	1110
O=c1[nH]nc(Sc2ncc([N+](=O)[O-])s2)n1-c1ccc2c(c1)OCCO2 + CC(=O)O[C@@]12CO[C@@H]1C[C@H](O)[C@@]1(C)C(=O)[C@H](O)C3=C(C)[C@@H](OC(=O)[C@H](O)[C@@H](NC(=O)OC(C)(C)C)c4ccccc4)C[C@@](O)([C@@H](OC(=O)c4ccccc4)[C@H]21)C3(C)C [Docetaxel] (first compound 0.2 µM, partner dose 0.0001 µM)	179
N#CC[C@H](C1CCCC1)n1cc(-c2ncnc3[nH]ccc23)cn1 [ruxolitinib] + NC(=O)c1ccc(N(C(N)=O)c2c(F)cccc2F)nc1-c1ccc(F)cc1F [VX702] (first compound 1 µM, partner dose 0.4 µM)	171
N#CC[C@H](C1CCCC1)n1cc(-c2ncnc3[nH]ccc23)cn1 [ruxolitinib] + Cn1sc(=O)n(Cc2ccccc2)c1=O [TDZD-8] (first compound 1 µM, partner dose 0.4 µM)	83.6
CC[C@]1(O)C[C@H]2CN(CCc3c([nH]c4ccccc34)[C@@](C(=O)OC)(c3cc4c(cc3OC)N(C=O)[C@H]3[C@@](O)(C(=O)OC)[C@H](OC(C)=O)[C@]5(CC)C=CCN6CC[C@]43[C@@H]65)C2)C1 [vincristine] + C[C@@H](Oc1cc(-c2cnn(C3CCNCC3)c2)cnc1N)c1c(Cl)ccc(F)c1Cl [Crizotinib] (first compound 0.0001 µM, partner dose 0.2 µM)	90.3
O=c1[nH]nc(Sc2ncc([N+](=O)[O-])s2)n1-c1ccc2c(c1)OCCO2 + CN(c1ncccc1CNc1nc(Nc2ccc3c(c2)CC(=O)N3)ncc1C(F)(F)F)S(C)(=O)=O [PF562271] (first compound 0.2 µM, partner dose 0.08 µM)	99.3
O=C(Nc1cc(C(F)(F)F)cc(C(F)(F)F)c1)c1cc(Cl)ccc1O + Nc1ccn([C@@H]2O[C@H](CO)[C@@H](O)C2(F)F)c(=O)n1 [gemcitabine] (first compound 0.016 µM, partner dose 0.0004 µM)	60
COc1cc([C@@H]2c3cc4c(cc3[C@@H](O[C@@H]3O[C@@H]5CO[C@@H](C)O[C@H]5[C@H](O)[C@H]3O)[C@H]3COC(=O)[C@H]23)OCO4)cc(OC)c1O [etoposide] + CCCS(=O)(=O)Nc1ccc(F)c(C(=O)c2c[nH]c3ncc(Cl)cc23)c1F [PLX4720] (first compound 0.02 µM, partner dose 0.08 µM)	97.6
CC[C@]1(O)C[C@H]2CN(CCc3c([nH]c4ccccc34)[C@@](C(=O)OC)(c3cc4c(cc3OC)N(C=O)[C@H]3[C@@](O)(C(=O)OC)[C@H](OC(C)=O)[C@]5(CC)C=CCN6CC[C@]43[C@@H]65)C2)C1 [vincristine] + Cn1c(=O)n(-c2ccc(C(C)(C)C#N)cc2)c2c3cc(-c4cnc5ccccc5c4)ccc3ncc21 [NVP-BEZ235] (first compound 0.0001 µM, partner dose 0.004 µM)	167
COc1cc([C@@H]2c3cc4c(cc3[C@@H](O[C@@H]3O[C@@H]5CO[C@@H](C)O[C@H]5[C@H](O)[C@H]3O)[C@H]3COC(=O)[C@H]23)OCO4)cc(OC)c1O [etoposide] + CN(c1ncccc1CNc1nc(Nc2ccc3c(c2)CC(=O)N3)ncc1C(F)(F)F)S(C)(=O)=O [PF562271] (first compound 0.02 µM, partner dose 0.08 µM)	30.4

2 entries picked at random from those above:
SMILES	cleaved PARP positive nuclei fraction [%]
O=C(/C=C/c1cccnc1)NCCCCC1CCN(C(=O)c2ccccc2)CC1 + Nc1nc(F)nc2c1ncn2[C@@H]1O[C@H](CO)[C@@H](O)[C@@H]1O [fludarabine] (first compound 0.01 µM, partner dose 0.2 µM)	193
N#CC[C@H](C1CCCC1)n1cc(-c2ncnc3[nH]ccc23)cn1 [ruxolitinib] + NC1(c2ccc(-c3nc4ccn5c(=O)[nH]nc5c4cc3-c3ccccc3)cc2)CCC1 [MK2206] (first compound 1 µM, partner dose 0.4 µM)	110
